# Data from the supplement of paper PMC10849652.
# Protein sequences, listed by entry. Tags and fused reporters are not part of them. Lines headed by an entry give the natural chain unless they say otherwise; changes in a name come on top.
# UniProt Q9H3E2: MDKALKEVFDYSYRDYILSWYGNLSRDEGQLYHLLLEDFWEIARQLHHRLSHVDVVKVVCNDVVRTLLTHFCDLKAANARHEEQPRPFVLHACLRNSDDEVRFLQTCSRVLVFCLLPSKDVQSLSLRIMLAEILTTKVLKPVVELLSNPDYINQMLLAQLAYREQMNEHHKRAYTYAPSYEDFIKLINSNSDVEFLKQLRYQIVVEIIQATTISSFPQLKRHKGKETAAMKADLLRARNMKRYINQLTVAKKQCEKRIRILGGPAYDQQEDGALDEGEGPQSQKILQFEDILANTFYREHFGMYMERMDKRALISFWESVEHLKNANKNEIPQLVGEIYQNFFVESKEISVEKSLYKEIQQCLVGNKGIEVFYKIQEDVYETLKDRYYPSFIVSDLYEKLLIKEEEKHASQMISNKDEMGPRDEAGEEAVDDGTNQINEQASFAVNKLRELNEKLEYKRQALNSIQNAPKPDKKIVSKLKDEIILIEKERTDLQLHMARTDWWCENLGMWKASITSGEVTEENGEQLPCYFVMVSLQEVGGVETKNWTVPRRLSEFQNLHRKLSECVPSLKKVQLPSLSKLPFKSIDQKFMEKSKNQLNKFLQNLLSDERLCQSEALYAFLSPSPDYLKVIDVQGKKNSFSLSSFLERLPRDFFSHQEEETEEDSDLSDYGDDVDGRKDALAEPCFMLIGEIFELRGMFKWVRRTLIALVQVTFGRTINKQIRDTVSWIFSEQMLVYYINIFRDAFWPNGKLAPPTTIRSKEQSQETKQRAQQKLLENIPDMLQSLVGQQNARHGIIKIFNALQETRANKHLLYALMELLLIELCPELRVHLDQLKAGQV
# UniProt Q9NX45: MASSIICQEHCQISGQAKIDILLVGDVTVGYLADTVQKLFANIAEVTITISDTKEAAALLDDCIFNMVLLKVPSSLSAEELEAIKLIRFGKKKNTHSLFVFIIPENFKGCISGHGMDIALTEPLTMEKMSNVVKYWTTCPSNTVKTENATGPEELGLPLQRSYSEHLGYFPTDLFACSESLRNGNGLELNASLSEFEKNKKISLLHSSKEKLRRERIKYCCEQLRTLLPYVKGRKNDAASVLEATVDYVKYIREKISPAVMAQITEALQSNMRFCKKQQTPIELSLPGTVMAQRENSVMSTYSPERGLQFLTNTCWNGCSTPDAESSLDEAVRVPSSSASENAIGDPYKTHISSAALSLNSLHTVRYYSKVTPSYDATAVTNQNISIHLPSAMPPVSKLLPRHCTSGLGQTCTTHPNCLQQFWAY
# UniProt P51532, whole entry, looked up: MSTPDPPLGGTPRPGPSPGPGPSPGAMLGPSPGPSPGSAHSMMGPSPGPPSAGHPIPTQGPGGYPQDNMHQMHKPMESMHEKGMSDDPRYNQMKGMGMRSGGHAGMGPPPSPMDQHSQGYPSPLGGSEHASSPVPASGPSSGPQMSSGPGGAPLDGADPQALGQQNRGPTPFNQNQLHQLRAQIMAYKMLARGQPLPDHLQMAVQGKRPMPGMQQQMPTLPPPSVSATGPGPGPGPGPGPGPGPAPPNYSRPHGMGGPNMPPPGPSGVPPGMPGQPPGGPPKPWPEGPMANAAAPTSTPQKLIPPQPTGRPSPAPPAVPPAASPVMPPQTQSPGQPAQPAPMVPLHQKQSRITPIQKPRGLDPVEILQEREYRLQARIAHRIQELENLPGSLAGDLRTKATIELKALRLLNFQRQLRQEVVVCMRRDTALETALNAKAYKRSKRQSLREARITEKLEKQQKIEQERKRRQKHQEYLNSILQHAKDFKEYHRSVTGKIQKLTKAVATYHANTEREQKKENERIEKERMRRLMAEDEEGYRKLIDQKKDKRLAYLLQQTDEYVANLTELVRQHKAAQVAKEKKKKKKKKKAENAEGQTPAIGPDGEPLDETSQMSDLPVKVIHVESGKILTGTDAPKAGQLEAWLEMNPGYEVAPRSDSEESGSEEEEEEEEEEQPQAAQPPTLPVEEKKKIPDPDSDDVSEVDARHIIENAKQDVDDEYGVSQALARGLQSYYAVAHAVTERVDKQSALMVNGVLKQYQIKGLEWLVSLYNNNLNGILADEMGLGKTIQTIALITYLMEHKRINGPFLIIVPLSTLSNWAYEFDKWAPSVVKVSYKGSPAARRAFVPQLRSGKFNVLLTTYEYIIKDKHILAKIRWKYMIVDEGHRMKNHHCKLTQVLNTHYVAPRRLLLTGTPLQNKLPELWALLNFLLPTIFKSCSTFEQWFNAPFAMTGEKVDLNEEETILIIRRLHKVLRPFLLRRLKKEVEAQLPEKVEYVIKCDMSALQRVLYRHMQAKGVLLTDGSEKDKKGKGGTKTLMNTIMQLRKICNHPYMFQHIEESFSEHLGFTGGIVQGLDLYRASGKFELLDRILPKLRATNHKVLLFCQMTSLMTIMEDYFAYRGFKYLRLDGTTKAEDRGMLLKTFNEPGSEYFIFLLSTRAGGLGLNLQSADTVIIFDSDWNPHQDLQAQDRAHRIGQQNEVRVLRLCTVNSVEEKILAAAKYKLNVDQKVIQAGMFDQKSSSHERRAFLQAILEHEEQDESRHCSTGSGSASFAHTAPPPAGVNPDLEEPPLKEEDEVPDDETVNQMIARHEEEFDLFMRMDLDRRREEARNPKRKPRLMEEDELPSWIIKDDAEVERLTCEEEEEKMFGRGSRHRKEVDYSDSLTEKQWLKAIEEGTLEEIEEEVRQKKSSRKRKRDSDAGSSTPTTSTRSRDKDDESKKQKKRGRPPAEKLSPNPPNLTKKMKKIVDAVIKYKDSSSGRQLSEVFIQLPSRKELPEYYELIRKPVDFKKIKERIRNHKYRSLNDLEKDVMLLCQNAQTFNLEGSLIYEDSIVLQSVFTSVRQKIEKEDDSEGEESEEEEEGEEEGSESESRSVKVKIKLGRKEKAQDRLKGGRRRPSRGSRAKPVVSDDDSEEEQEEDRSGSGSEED
# UniProt O00161: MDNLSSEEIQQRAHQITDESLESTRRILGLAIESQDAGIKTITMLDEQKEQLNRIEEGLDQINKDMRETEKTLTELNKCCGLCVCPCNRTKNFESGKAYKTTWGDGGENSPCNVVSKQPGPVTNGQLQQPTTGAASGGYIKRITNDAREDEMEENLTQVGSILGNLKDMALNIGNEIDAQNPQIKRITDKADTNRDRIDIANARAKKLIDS
# UniProt Q92484: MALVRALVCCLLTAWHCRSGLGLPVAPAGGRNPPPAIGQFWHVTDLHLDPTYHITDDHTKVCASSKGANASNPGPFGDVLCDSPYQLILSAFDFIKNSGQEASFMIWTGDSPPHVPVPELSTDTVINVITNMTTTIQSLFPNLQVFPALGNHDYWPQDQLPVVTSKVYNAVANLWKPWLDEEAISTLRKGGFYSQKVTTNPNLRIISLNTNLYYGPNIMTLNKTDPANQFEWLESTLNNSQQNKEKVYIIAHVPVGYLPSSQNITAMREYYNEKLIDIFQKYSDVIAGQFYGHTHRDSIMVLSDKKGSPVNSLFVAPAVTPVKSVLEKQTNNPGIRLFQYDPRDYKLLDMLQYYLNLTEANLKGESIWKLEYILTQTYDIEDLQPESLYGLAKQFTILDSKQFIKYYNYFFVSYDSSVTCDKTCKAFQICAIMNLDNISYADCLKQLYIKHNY
# UniProt Q13487, whole entry, looked up: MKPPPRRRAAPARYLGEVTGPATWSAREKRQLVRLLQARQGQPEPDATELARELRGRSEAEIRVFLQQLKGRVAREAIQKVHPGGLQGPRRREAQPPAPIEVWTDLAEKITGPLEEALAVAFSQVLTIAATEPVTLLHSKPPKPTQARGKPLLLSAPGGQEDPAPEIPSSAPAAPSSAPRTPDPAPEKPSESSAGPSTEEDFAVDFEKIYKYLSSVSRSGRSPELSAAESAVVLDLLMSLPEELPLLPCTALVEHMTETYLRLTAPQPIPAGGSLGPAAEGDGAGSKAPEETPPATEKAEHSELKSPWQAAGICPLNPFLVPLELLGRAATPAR
# UniProt O60906: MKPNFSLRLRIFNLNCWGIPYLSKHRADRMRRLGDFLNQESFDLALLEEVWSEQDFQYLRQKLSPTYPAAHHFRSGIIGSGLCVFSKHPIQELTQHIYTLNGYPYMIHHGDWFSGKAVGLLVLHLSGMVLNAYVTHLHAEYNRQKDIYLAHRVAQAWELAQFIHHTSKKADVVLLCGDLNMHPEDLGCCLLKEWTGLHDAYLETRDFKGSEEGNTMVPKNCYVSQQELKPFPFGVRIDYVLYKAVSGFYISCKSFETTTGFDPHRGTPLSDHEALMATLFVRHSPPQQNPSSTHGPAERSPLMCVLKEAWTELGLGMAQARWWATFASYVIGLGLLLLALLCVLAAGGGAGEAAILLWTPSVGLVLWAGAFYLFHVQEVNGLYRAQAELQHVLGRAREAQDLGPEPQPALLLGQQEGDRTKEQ
# UniProt Q5VWJ9: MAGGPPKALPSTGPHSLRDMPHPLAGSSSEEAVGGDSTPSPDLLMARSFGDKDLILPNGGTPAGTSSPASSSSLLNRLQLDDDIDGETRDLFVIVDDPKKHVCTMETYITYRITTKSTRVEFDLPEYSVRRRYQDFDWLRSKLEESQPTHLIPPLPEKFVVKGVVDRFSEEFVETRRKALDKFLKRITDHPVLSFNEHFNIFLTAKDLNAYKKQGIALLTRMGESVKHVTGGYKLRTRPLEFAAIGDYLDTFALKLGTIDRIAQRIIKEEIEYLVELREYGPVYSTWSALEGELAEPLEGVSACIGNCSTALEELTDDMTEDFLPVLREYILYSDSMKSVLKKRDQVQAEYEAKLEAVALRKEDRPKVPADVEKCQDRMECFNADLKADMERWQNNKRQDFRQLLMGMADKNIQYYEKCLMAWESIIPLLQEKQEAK
# UniProt P35716: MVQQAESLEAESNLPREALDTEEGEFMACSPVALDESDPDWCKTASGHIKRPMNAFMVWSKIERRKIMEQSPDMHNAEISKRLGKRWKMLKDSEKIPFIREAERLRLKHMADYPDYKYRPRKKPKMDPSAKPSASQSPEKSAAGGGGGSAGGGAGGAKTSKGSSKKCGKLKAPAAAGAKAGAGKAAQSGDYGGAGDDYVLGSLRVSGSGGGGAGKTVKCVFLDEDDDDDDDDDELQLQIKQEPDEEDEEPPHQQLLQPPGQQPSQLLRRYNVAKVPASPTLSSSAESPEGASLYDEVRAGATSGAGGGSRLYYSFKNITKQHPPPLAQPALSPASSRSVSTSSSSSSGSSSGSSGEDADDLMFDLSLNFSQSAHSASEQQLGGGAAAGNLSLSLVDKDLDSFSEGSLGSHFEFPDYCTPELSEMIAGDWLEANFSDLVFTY
# UniProt Q9H4I9: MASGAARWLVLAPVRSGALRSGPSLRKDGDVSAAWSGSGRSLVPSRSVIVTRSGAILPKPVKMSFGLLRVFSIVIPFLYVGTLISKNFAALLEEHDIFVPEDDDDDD
# UniProt P17405: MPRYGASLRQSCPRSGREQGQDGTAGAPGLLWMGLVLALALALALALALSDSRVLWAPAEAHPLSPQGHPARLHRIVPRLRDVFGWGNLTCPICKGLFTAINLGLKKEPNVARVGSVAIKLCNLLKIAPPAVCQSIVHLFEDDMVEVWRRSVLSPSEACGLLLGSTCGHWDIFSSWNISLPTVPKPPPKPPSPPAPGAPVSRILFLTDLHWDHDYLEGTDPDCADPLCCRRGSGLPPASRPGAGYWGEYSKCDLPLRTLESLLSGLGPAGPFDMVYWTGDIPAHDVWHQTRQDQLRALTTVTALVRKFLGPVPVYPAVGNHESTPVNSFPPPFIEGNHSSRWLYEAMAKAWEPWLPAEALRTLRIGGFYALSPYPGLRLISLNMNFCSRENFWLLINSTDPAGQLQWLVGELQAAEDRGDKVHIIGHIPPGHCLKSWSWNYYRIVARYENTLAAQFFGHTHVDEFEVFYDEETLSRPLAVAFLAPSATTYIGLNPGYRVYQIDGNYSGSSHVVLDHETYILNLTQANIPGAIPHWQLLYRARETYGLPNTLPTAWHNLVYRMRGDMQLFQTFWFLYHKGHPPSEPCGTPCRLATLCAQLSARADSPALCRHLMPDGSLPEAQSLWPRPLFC
# UniProt Q7Z3B0: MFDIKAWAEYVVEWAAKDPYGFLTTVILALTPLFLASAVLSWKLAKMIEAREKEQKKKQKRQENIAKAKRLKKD
# The other results are listed elsewhere or left out.
# Experiments:
# Assay in all cases: log2 fold change, soluble protein after heating vs DMSO (PISA); higher = thermal stabilisation; K562 lysate, 10 uM; active = over 0.2 and 3.5 SD of the protein, either way, in both replicates (recomputed)
# [1] = compound: Cc1sc2c(c1C)C(c1ccc(Cl)cc1)=N[C@@H](CC(=O)OC(C)(C)C)c1nnc(C)n1-2
# Outline: (§1)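 Dounce homogenisation of K562 pellets in PBS pH 7.4 with 1 mM MgCl2 produced a crude extract, used at 1 mg/mL protein. Exposure to 10 μM compound lasted 30 min, and aliquots were then heated for 3 min across 48°C-58°C, pooled and brought to 0.5% NP-40 at 4°C. The supernatant after 21,000xg for 90 min was quantified by TMTpro 16plex LC-MS/MS with channel sums equalised. Duplicate values are given as log-two fold change in thermal stability relative to solvent controls.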
# [2] = compound: C1=CC=C(C=C1)[C@H](COC2=CC3=C(C=C2)NC(=O)N3)NC(=O)C4=CC=CN(C4=O)CC5=CC(=C(C=C5)F)F
# Outline: as §1
# [3] = compound: CC1=C(SC2=C1C(=N[C@H](C3=NN=C(N32)C)CC(=O)N)C4=CC=C(C=C4)Cl)C
# Outline: as §1
# [4] = compound: c1ccc([C@@H]2C[C@H]2NC2CCNCC2)cc1
# Outline: as §1
# [5] = compound: CC1=C2C(=CC=C1)N=C(N(C2=O)C3=CC=CC=C3C)CN4C=NC5=C(N=CN=C54)N
# Outline: as §1
Target,log2 fold change [1],log2 fold change [2],log2 fold change [3],log2 fold change [4],log2 fold change [5]
SNX25 (UniProt Q9H3E2),inactive: -0.05,,,,
SOHLH2 isoform 3 (UniProt Q9NX45),inactive: -0.03,inactive: 0.019,inactive: -0.058,inactive: -0.007,
SMARCA4 isoform 4 (UniProt P51532),inactive: -0.007,,,inactive: 0.131,
SMARCC2 isoform 3 (UniProt Q8TAQ2),inactive: -0.001,inactive: 0.074,inactive: -0.122,,
SNAP23 isoform 2 (UniProt O00161),,,,inactive: -0.038,inactive: 0.045
SMPDL3A (UniProt Q92484),,,,,inactive: -0.146
SNAPC2 (UniProt Q13487),inactive: 0.101,inactive: 0.107,inactive: 0.302,inactive: 0.004,
SMPD2 (UniProt O60906),inactive: -0.244,,,inactive: -0.05,
SNX30 (UniProt Q5VWJ9),inactive: 0.086,inactive: -0.019,inactive: 0.06,inactive: -0.011,
"SMIM26, A0A096LP01",,,,inactive: 0.316,
SOX11 (UniProt P35716),,,,,inactive: -0.077
SMDT1 (UniProt Q9H4I9),inactive: 0.067,inactive: -0.145,inactive: 0.131,inactive: -0.094,
SMPD1 (UniProt P17405),inactive: -0.012,inactive: 0.016,inactive: 0.038,,
SMIM15 (UniProt Q7Z3B0),inactive: -0.23,,,inactive: -0.029,inactive: 0.008

# Already shown: entries from further up.
Target,log2 fold change [1],log2 fold change [2],log2 fold change [3],log2 fold change [4],log2 fold change [5]
SMPD1 (UniProt P17405),inactive: -0.012,inactive: 0.016,inactive: 0.038,,
SMIM15 (UniProt Q7Z3B0),inactive: -0.23,,,inactive: -0.029,inactive: 0.008
